The subject of the assay is L1210 leukemia ip in BDF1 mice, survival T/C. The assay can be described thus: NCI In Vivo Anticancer Drug Screen. Data for tumor model L1210 Leukemia (intraperitoneal) in B6D2F1 (BDF1) mice. The settings on record: T/C endpoint: mean survival time, higher T/C = longer survival.
Where [1] appears, read: dose: 300.0 mg/kg/injection, schedule: Q01DX001 (ip), vehicle: acetone.
The mark [2] stands for this setting: dose: 400.0 mg/kg/injection, schedule: Q04DX003 (ip), vehicle: saline with Tween-80.
Where [3] appears, read: dose: 400.0 mg/kg/injection, schedule: Q01DX001 (ip), vehicle: Klucel (hydroxypropylcellulose) (HPC).
Setting [4] is: dose: 25.0 mg/kg/injection, schedule: Q01DX001 (ip), vehicle: saline.
[5] abbreviates: dose: 400.0 mg/kg/injection, schedule: Q04DX002 (ip), vehicle: saline.
Setting [6] is: dose: 400.0 mg/kg/injection, schedule: Q04DX002 (ip), vehicle: saline with Tween-80.
[7] abbreviates: dose: 100.0 mg/kg/injection, schedule: Q01DX001 (ip), vehicle: saline.
Where [8] appears, read: dose: 200.0 mg/kg/injection, schedule: Q04DX003 (ip), vehicle: saline with Tween-80.

Structures are written as SMILES. The list is a part of this screen's results and no random one: it gathers tests that were run many times, whatever their T/C, doses with no T/C, and many T/C values between a quarter and a half above the control. Further doses and runs are listed elsewhere. T/C is the treated group as % of the vehicle group. Some doses have a count of surviving animals in place of a T/C: the source files T/C as zero there, which appears to mark a toxic dose or a test without result, not a measured value. Some survivor counts are full or nearly so, which does not show that the dose was tolerated: the source hardly ever lists a survival T/C far under the control, and the zero likely stands for such cases as well. Counts of survivors are from the toxicity check (mostly the fifth day) where no day follows; animals may have died later. Schedules are NCI's codes, read here as Q, the interval in days (D) or hours (H), X, the number of doses. Some molecules as drawn cover several salts, stereoisomers or complexes of the source; a dose is that of the sample tested. Some doses were run more than once; their values stand side by side, smallest first. Some schedule codes hold Z or #, which are not explained here. Marks such as (2×) give the number of equal values in this list. Where survival is the endpoint, the PubChem record calls one and a half times the control and up active, and a quarter to a half above the control has no call in these data; cut-offs in other NCI protocols can differ.

Consider 29 compounds from PubChem BioAssay AID248 (DTP/NCI, 2004).

`O=C(O)CCC(=O)O`: the survivor count runs as follows: (dose: 62.5 mg/kg/injection, schedule: Q01DX015 (ip), vehicle: water) 6 of 6; (dose: 250.0 mg/kg/injection, schedule: Q01DX015 (ip), vehicle: water) 2 of 6; (dose: 400.0 mg/kg/injection, schedule: Q01DX009 (ip), vehicle: saline) 1 of 6 and 3 of 6; (dose: 500.0 mg/kg/injection, schedule: Q01DX001 (ip), vehicle: water) 3 of 6; (dose: 500.0 mg/kg/injection, schedule: Q01DX015 (ip), vehicle: water) 3 of 6; (dose: 750.0 mg/kg/injection, schedule: Q01DX001 (ip), vehicle: water) 0 of 6 and 3 of 6. For the same compound, under “dose: 1000.0 mg/kg/injection, schedule: Q01DX001 (ip), vehicle: water”, the survivor count was 0 of 6 (2×).

In the case of `NC1CC(N)CC(N)C1` (stereo not given), the survivor count reads like this: (dose: 200.0 mg/kg/injection, schedule: Q04DX003 (ip), vehicle: saline) 5 of 6; (dose: 400.0 mg/kg/injection, schedule: Q04DX003 (ip), vehicle: saline) 0 of 6.

Consider `O=C(CNC(=O)Nc1ccc(C2=NCCN2)cc1)Nc1ccc(C2=NCCN2)cc1`, for which the survivor count is, setting by setting: (dose: 36.0 mg/kg/injection, schedule: Q01DX Z (ip), vehicle: water) 0 of 6; (dose: 54.0 mg/kg/injection, schedule: Q01DX Z (ip), vehicle: water) 0 of 6; (dose: 81.0 mg/kg/injection, schedule: Q01DX Z (ip), vehicle: water) 0 of 6; (dose: 120.0 mg/kg/injection, schedule: Q01DX Z (ip), vehicle: water) 0 of 6.

With `CC(C)(C)C1CCCC(NC(=O)N(CCCl)N=O)C1` (stereo not given), the T/C (dose: 23.0 mg/kg/injection, schedule: Q01DX001 (ip), vehicle: other) is 136 % of control.

Consider `O=NN(CCCl)C(=O)Nc1ccccc1NC(=O)N(CCCl)N=O`, for which the T/C is 130 % of control (dose: 6.0 mg/kg/injection, schedule: Q01DX001 (ip), vehicle: carboxymethylcellulose (CMC)); 130 % of control (dose: 8.0 mg/kg/injection, schedule: Q01DX001 (ip), vehicle: carboxymethylcellulose (CMC)); 139 % of control (dose: 10.0 mg/kg/injection, schedule: Q01DX001 (ip), vehicle: carboxymethylcellulose (CMC)); 130 % of control (dose: 12.5 mg/kg/injection, schedule: Q01DX001 (ip), vehicle: carboxymethylcellulose (CMC)); 137 % of control (dose: 15.0 mg/kg/injection, schedule: Q01DX001 (ip), vehicle: carboxymethylcellulose (CMC)).

Consider `Cc1cccc(C(O)C(=O)O)c1` (stereo not given), for which the survivor count under setting [1] was 0 of 6.

For the compound `CCC(C)N1C(=O)CCC1=O` (stereo not given), where the note is “dose: 1200.0 mg/kg/injection, schedule: Q01DX001 (ip), vehicle: saline”, the survivor count is listed as 0 of 4.

As to `CCOC(=O)Nc1nccs1`, the survivor count under setting [2] is given as 1 of 6.

With `C=C1C(=O)OCC2C(C(=O)O)=CC3C(C)C(C)=CC123` (stereo not given), the survivor count (dose: 80.0 mg/kg/injection, schedule: Q01DX009 (ip), vehicle: saline with Tween-80) was 5 of 6.

For the compound `CC(=O)Oc1ccc2c(c1N=NN(C)C)CCC1C2CCC2(C)C(=O)CCC12` (stereo not given), the survivor count under setting [3] is listed as 0 of 3.

As to `O=C(O)c1ccc(N/N=C/C(F)(F)F)cc1`, the T/C under setting [4] is 136 % of control. The survivor count by setting is: (dose: 200.0 mg/kg/injection, schedule: Q04DX002 (ip), vehicle: saline) 3 of 3; under setting [5], 0 of 3 and 0 of 6.

For the compound `CC1CCCCN1P(N1CCCCC1C)N1CCCCC1C` (stereo not given), the survivor count under setting [6] is given as 0 of 3.

Turning to `CNC(=O)Nc1nc2ccccc2[nH]1`, under setting [2], the T/C was 127 % of control.

For `O=NN(CCF)C(=O)NC1CCC(NC(=O)N(CCF)N=O)CC1` (stereo not given), for the setting “dose: 25.0 mg/kg/injection, schedule: Q01DX001 (ip), vehicle: other”, the T/C was 128 % of control.

Consider `O=c1cc(Oc2ccc([N+](=O)[O-])cc2)[nH]c(=O)[nH]1`, for which the survivor count under setting [3] is given as 3 of 6.

As for `O=C(NC(CS(=O)(=O)O)C(=O)O)OCc1ccccc1` (stereo not given), the survivor count (dose: 400.0 mg/kg/injection, schedule: Q04DX003 (ip), vehicle: Klucel (hydroxypropylcellulose) (HPC)) is 3 of 6.

As to `CN(C)C(=O)Oc1cccc2c1ccc[n+]2C`, the survivor count runs as follows: (dose: 6.25 mg/kg/injection, schedule: Q01DX001 (ip), vehicle: saline) 0 of 6; (dose: 12.5 mg/kg/injection, schedule: Q01DX001 (ip), vehicle: saline) 0 of 6; under setting [4], 0 of 6; (dose: 50.0 mg/kg/injection, schedule: Q01DX001 (ip), vehicle: saline) 0 of 6; under setting [7], 0 of 6; (dose: 200.0 mg/kg/injection, schedule: Q01DX001 (ip), vehicle: saline) 0 of 6. Under “dose: 400.0 mg/kg/injection, schedule: Q01DX001 (ip), vehicle: saline”, the survivor count was 0 of 6.

On to `O=C(Cc1c[nH]c2ccccc12)N/N=C\c1c[nH]c2ccccc12`, for which the survivor count under setting [7] is given as 6 of 6.

In the case of `O=S(=O)(O)c1ccc(CCCCCCCCCl)cc1`, the survivor count under setting [5] is 0 of 3.

Consider `CCCCCCCCCCCCCCCCCCC1=NCCN1`, for which the survivor count is, setting by setting: (dose: 37.5 mg/kg/injection, schedule: Q04DX003 (ip), vehicle: saline) 1 of 6; (dose: 75.0 mg/kg/injection, schedule: Q04DX003 (ip), vehicle: saline) 0 of 6; (dose: 150.0 mg/kg/injection, schedule: Q01DX001 (ip), vehicle: acetone) 2 of 6; under setting [1], 1 of 6.

On to `C/C=C1\CN2CCC34CC5C6CC7c8c(c9ccccc9n8C)CC(C6COC5(C)OC35C2CC1C(C(=O)OC)N5c1ccccc14)N7C` (stereo not given), for which the survivor count reads like this: under setting [8], 6 of 6; under setting [2], 6 of 6.

For `CCCC(=O)N1C(C)CCC1C` (stereo not given), the T/C under setting [6] was 127 % of control.

Turning to `O=C(Nc1ccccc1[N+](=O)[O-])C(=O)Nc1ccccc1[N+](=O)[O-]`, the survivor count under setting [2] is recorded as 6 of 6.

For the compound `O=C(Nc1cccc(C2=NCCN2)c1)c1ccc(C(=O)Nc2cccc(C3=NCCN3)c2)cc1`, the survivor count runs as follows: (dose: 10.0 mg/kg/injection, schedule: Q01DX Z (ip), vehicle: saline) 1 of 6; (dose: 15.0 mg/kg/injection, schedule: Q01DX Z (ip), vehicle: methylcellulose (MC)) 0 of 6; (dose: 30.0 mg/kg/injection, schedule: Q01DX Z (ip), vehicle: methylcellulose (MC)) 0 of 6; (dose: 60.0 mg/kg/injection, schedule: Q01DX Z (ip), vehicle: methylcellulose (MC)) 0 of 6.

`CC(=O)[O][Pb]([CH3])([CH3])[CH3]`: the survivor count is on record as 0 of 4 (dose: 20.0 mg/kg/injection, schedule: Q01DX001 (ip), vehicle: carboxymethylcellulose (CMC)); 0 of 4 (dose: 40.0 mg/kg/injection, schedule: Q01DX001 (ip), vehicle: carboxymethylcellulose (CMC)); 0 of 4 (dose: 80.0 mg/kg/injection, schedule: Q01DX001 (ip), vehicle: carboxymethylcellulose (CMC)); 0 of 3 (dose: 100.0 mg/kg/injection, schedule: Q04DX003 (ip), vehicle: saline with Tween-80); 0 of 3 under setting [8]; 0 of 3 under setting [2].

Take `Cc1cc(Cl)ccc1NC(=O)c1ccc([N+](=O)[O-])cc1`: where the note is “dose: 400.0 mg/kg/injection, schedule: Q01DX009 (ip), vehicle: saline with Tween-80”, the survivor count was 6 of 6.

On to `S=C(Nc1ccc(Cl)c(Cl)c1)Sc1ccccc1`, for which, under setting [8], the survivor count is on record as 0 of 3.

For the compound `[O]=[Sn]([c]1ccccc1)[c]1ccccc1`, the survivor count runs as follows: (dose: 25.6 mg/kg/injection, schedule: Q04DX002 (ip), vehicle: saline with Tween-80) 0 of 3; (dose: 160.0 mg/kg/injection, schedule: Q04DX002 (ip), vehicle: saline with Tween-80) 0 of 3; under setting [6], 0 of 3.

Take `CCN1CSC(=S)N(CC)C1`: where the note is “dose: 100.0 mg/kg/injection, schedule: Q01DX009 (ip), vehicle: Klucel (hydroxypropylcellulose) (HPC)”, the survivor count was 2 of 6.
